These are yes or no findings as the source states them, for the method shown. In cells and extracts the contact can be indirect. Binding calls can cover weak binding; strength is not graded here.

The assay has as its target T1, Bartonella henselae BepA, FIC and OB domains (amino acid residues 1-296) (B. henselae) (UniProt Q6G2A9).
T1 sequence: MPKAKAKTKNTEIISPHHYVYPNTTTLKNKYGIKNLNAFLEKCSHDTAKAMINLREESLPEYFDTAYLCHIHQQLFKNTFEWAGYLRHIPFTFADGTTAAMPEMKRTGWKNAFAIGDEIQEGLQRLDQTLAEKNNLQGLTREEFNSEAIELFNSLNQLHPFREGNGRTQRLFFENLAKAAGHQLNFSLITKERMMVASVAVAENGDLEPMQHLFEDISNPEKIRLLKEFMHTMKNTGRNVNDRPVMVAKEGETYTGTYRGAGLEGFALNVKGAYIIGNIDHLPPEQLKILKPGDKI
Nature of the assay: crystal structure; co-expressed and co-purified complex, 20 mg/mL in 20 mM HEPES, 150 mM NaCl, 2 mM MgCl2, 1 mM TCEP; hanging-drop vapor diffusion at 22 °C; reservoir 0.2 M di-sodium malonate, 20% w/v PEG 3350; both purified.

Regarding “Bartonella henselae BiaA antitoxin (FicA homolog), full length (B. henselae)”, the binding entry is “binds”.

The values above are taken from article PMC8401265, “Evolutionary Diversification of Host-Targeted Bartonella Effectors Proteins Derived from a Conserved FicTA Toxin-Antitoxin Module” (Microorganisms, 2021).
